Results as given in article PMC7521923.
No constants are given. Whether binding was seen depends on the method and setting. In cells and extracts the contact can be indirect. A yes stands for co-enrichment or nearness to the bait. Other partners may have been found. Tags and fused reporters may be left off the sequences shown.

Target: T1, TMEM79-Myc-Flag (mouse) (UniProt Q9D709)
T1 sequence: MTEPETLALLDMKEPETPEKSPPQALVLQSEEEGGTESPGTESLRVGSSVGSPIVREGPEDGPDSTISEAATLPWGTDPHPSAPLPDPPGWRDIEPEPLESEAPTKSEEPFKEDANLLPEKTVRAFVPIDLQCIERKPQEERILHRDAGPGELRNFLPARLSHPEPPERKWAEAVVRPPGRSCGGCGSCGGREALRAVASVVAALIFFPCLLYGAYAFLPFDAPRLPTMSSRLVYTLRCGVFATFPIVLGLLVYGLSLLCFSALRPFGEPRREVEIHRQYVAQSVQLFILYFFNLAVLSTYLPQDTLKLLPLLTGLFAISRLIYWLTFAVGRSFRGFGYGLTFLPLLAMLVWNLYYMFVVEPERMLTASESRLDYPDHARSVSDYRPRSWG
Assay: affinity purification with mass spectrometry; tandem affinity purification from HEK293T cells stably expressing TMEM79-Myc-Flag (EGFP cells as control): anti-Flag M2 gel 4 h at 4°C, Flag peptide elution, anti-c-Myc agarose overnight at 4°C, c-Myc peptide elution; visible silver-stained gel bands analysed by mass spectrometry

B1: USP8 (endogenous) (enzyme, UniProt P40818 1-1118)
chain: MPAVASVPKELYLSSSLKDLNKKTEVKPEKISTKSYVHSALKIFKTAEECRLDRDEERAYVLYMKYVTVYNLIKKRPDFKQQQDYFHSILGPGNIKKAVEEAERLSESLKLRYEEAEVRKKLEEKDRQEEAQRLQQKRQETGREDGGTLAKGSLENVLDSKDKTQKSNGEKNEKCETKEKGAITAKELYTMMTDKNISLIIMDARRMQDYQDSCILHSLSVPEEAISPGVTASWIEAHLPDDSKDTWKKRGNVEYVVLLDWFSSAKDLQIGTTLRSLKDALFKWESKTVLRNEPLVLEGGYENWLLCYPQYTTNAKVTPPPRRQNEEVSISLDFTYPSLEESIPSKPAAQTPPASIEVDENIELISGQNERMGPLNISTPVEPVAASKSDVSPIIQPVPSIKNVPQIDRTKKPAVKLPEEHRIKSESTNHEQQSPQSGKVIPDRSTKPVVFSPTLMLTDEEKARIHAETALLMEKNKQEKELRERQQEEQKEKLRKEEQEQKAKKKQEAEENEITEKQQKAKEEMEKKESEQAKKEDKETSAKRGKEITGVKRQSKSEHETSDAKKSVEDRGKRCPTPEIQKKSTGDVPHTSVTGDSGSGKPFKIKGQPESGILRTGTFREDTDDTERNKAQREPLTRARSEEMGRIVPGLPSGWAKFLDPITGTFRYYHSPTNTVHMYPPEMAPSSAPPSTPPTHKAKPQIPAERDREPSKLKRSYSSPDITQAIQEEEKRKPTVTPTVNRENKPTCYPKAEISRLSASQIRNLNPVFGGSGPALTGLRNLGNTCYMNSILQCLCNAPHLADYFNRNCYQDDINRSNLLGHKGEVAEEFGIIMKALWTGQYRYISPKDFKITIGKINDQFAGYSQQDSQELLLFLMDGLHEDLNKADNRKRYKEENNDHLDDFKAAEHAWQKHKQLNESIIVALFQGQFKSTVQCLTCHKKSRTFEAFMYLSLPLASTSKCTLQDCLRLFSKEEKLTDNNRFYCSHCRARRDSLKKIEIWKLPPVLLVHLKRFSYDGRWKQKLQTSVDFPLENLDLSQYVIGPKNNLKKYNLFSVSNHYGGLDGGHYTAYCKNAARQRWFKFDDHEVSDISVSSVKSSAAYILFYTSLGPRVTDVAT
**Q.** How did the binding turn out when B1 was run?
**A.** Its binding is “binds”.
